Assay [1] deals with T1, fetuin (UniProt P12763).
T1 sequence (chain, glycoprotein with sialic acid): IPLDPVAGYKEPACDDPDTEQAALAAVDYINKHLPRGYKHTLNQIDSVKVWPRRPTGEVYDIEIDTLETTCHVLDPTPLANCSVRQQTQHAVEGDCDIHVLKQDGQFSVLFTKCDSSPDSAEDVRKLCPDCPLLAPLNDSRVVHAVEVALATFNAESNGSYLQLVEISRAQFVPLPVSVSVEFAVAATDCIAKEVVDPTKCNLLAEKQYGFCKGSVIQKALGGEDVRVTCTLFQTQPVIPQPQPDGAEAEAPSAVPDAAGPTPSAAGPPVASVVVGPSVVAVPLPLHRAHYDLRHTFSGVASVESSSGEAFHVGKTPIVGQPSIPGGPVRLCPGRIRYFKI
The assay can be described thus: ELISA; microplates coated with 1 ug/well fetuin or asialofetuin (carbonate buffer pH 9.6, overnight 4°C); rMIC added for 2 h at 25°C, with or without pre-incubation with sugar; detected with serum of T. gondii-infected mice; absorbance at 450 nm; both purified. In general terms: In an ELISA, binding on a coated surface is turned into a signal by an enzyme label.

The chains behind the UniProt entries cited, without tags or fusion partners. Residues count along the entry.
UniProt O00834, residues 17-456: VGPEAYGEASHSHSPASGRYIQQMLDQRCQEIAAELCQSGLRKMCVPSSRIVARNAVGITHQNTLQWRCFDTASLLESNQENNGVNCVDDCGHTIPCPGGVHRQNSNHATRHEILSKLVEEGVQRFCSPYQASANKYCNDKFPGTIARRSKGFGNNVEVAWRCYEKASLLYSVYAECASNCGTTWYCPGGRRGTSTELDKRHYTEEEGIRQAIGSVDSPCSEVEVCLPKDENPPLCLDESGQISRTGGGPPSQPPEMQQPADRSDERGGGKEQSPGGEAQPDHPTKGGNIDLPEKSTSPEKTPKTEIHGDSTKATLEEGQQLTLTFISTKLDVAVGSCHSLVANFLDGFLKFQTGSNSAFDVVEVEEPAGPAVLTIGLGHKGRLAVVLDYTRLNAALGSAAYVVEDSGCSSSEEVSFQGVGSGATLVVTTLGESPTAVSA

Assay [2] has as its target T2, native MIC4 of the Lac+ fraction (Toxoplasma gondii (endogenous in tachyzoites)) (UniProt Q9XZH7).
T2 sequence: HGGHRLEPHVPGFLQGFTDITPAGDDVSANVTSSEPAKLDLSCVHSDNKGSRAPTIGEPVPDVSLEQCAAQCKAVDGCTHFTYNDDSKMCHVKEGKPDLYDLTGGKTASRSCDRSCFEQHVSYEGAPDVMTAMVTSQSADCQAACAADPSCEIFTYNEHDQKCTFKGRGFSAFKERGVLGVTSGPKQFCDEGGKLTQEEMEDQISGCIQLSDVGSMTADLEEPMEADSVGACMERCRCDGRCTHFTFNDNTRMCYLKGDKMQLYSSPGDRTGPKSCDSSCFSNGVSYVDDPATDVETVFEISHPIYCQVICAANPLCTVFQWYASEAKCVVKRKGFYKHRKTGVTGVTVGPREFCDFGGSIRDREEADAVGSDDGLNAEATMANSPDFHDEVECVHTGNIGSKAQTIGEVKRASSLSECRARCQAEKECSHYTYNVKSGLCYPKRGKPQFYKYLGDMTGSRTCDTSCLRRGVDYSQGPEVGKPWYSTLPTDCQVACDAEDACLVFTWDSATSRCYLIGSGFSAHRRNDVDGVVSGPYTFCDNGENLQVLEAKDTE
Kind of assay: affinity chromatography on a lactose column; total soluble tachyzoite antigen (STAg) loaded on a lactose column in PBS with 0.5 M NaCl; eluted with 0.1 M lactose (Lac+ fraction).

Assay [3] has as its target T3, asialofetuin (UniProt P12763).
T3 sequence (chain, glycoprotein without sialic acid): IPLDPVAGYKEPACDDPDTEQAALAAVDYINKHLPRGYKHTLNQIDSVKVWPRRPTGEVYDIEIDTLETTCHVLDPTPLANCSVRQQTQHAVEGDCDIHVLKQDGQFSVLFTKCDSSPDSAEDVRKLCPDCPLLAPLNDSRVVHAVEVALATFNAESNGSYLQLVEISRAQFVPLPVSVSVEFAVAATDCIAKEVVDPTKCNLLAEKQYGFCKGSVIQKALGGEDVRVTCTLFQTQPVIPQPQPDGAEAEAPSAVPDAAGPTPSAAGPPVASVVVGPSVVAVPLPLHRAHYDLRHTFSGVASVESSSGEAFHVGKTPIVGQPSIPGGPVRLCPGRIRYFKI
Kind of assay: ELISA; microplates coated with 1 ug/well fetuin or asialofetuin (carbonate buffer pH 9.6, overnight 4°C); rMIC added for 2 h at 25°C, with or without pre-incubation with sugar; detected with serum of T. gondii-infected mice; absorbance at 450 nm; both purified.

These are yes or no findings as the source states them, for the method shown. Some entries that bind do so weakly or less than the wild type. For part of these data: Sequences can lack the tags named with a protein.

Regarding “recombinant MIC1 (Toxoplasma gondii microneme protein 1), His-tagged (from UniProt O00834 17-456)”, the binding result in assay [1] was “binds”. Regarding “native MIC1 of the Lac+ fraction (from UniProt O00834 17-456)”, the binding entry in assay [2] is given as “binds”.

B1: recombinant MIC4 (Toxoplasma gondii microneme protein 4), His-tagged (protein, UniProt Q9XZH7 26-580)
chain: HGGHRLEPHVPGFLQGFTDITPAGDDVSANVTSSEPAKLDLSCVHSDNKGSRAPTIGEPVPDVSLEQCAAQCKAVDGCTHFTYNDDSKMCHVKEGKPDLYDLTGGKTASRSCDRSCFEQHVSYEGAPDVMTAMVTSQSADCQAACAADPSCEIFTYNEHDQKCTFKGRGFSAFKERGVLGVTSGPKQFCDEGGKLTQEEMEDQISGCIQLSDVGSMTADLEEPMEADSVGACMERCRCDGRCTHFTFNDNTRMCYLKGDKMQLYSSPGDRTGPKSCDSSCFSNGVSYVDDPATDVETVFEISHPIYCQVICAANPLCTVFQWYASEAKCVVKRKGFYKHRKTGVTGVTVGPREFCDFGGSIRDREEADAVGSDDGLNAEATMANSPDFHDEVECVHTGNIGSKAQTIGEVKRASSLSECRARCQAEKECSHYTYNVKSGLCYPKRGKPQFYKYLGDMTGSRTCDTSCLRRGVDYSQGPEVGKPWYSTLPTDCQVACDAEDACLVFTWDSATSRCYLIGSGFSAHRRNDVDGVVSGPYTFCDNGENLQVLEAKDTE
Regarding B1, the binding result in assay [3] is listed as “binds”.

(Values after article PMC6608980, “The lectin-specific activity of Toxoplasma gondii microneme proteins 1 and 4 binds Toll-like receptor 2 and 4 N-glycans to regulate innate immune priming” (PLoS Pathogens, 2019).)
